# The other results are listed elsewhere or left out. The main result of the screen is listed elsewhere. These columns were measured beside it and carry no call. The list favours compounds with an active or inconclusive main result. Words in brackets tell the shape of the fitted curve; partial curves, single points and poor fits give uncertain potencies.
# Assay: qHTS Assay for Lipid Storage Modulators in Drosophila S3 Cells;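 for cell number change: cells counted by Cell Tracker Red CMTPX staining in the red channel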
# Conditions: BODIPY lipid droplet fluorescence, 18-24 h; for cell number change: measured here: cell count max response, cells fed with added oleic acid
# Procedure, shortened: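 Drosophila S3 cells loaded with oleic acid (400 uM, as added) and compounds at several concentrations; lipid droplets imaged by 488-nm laser-scanning cytometry, 500–530 nm intensity and object ratio to cell channel. Percent activity normalized to 20 uM Triacsin C.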
# [1] = measured here: lipid fluorescence (Fed channel) AC50, cells fed with added oleic acid
# [2] = measured here: cell number channel AC50, cells fed with added oleic acid
SMILES,cell number change [%],AC50 [1],AC50 [2]
CC(C)NC(=O)C1(S(=O)(=O)c2ccccc2)CC=CC1,2.99,"3.66 µM [rising, full curve]",–
COc1ccc(/C=C/C(=O)NCCN=C2NS(=O)(=O)c3ccccc32)cc1,-44.7,"6.51 µM [falling, single point]","6.51 µM [falling, single point]"
O=C(COC(=O)CCc1nc2ccccc2s1)NCc1ccco1,39.5,–,"0.00461 µM [falling, full curve, poor fit]"
Cc1ccc(NC(=O)COC(=O)[C@H](C)NC(=O)c2ccccc2)cc1S(=O)(=O)N1CCOCC1,-16.8,"18.4 µM [falling, single point]",–
O=C(C1CCCN(S(=O)(=O)c2cccc3cccnc23)C1)N1CCN(c2ccc(F)cc2)CC1 (stereo unspecified),–,"0.116 µM [rising, full curve, poor fit]",–
CCOCCn1c(C(C)O)nc2ccccc21 (stereo unspecified),-19.5,"29.1 µM [falling, partial curve, poor fit]",–
Cc1ccc(/C=N/NC(=O)c2ccc(NC(=O)c3ccccc3Cl)cc2)o1,8.75,–,–
O=C1NC(=S)CN1c1ccccc1,-59.2,"3.66 µM [falling, full curve]","7.31 µM [falling, partial curve]"
O=C(NC1CCNCC1)C1CCCCC1,31.4,–,–
Cc1cc(C)nc(NC(=NCc2ccc3c(c2)OCO3)NC(=O)Nc2ccccc2)n1,-5.58,"1.64 µM [falling, full curve]",–
Cc1c(C(=O)O)c(=O)n(-c2ccccc2)n1-c1ccccc1,76.1,–,"2.91 µM [falling, partial curve]"
CC(Sc1nc(N2CCCCC2)c2c(c1C#N)CCCC2)C(=O)O (stereo unspecified),-18,"0.146 µM [falling, full curve, poor fit]",–
C=CCOCCN1C(=O)C2C(c3ccccc3)C=CC(c3ccccc3)C2C1=O (stereo unspecified),45,–,"29.1 µM [rising, single point]"
C=CCSC1=C(C#N)C(c2ccccc2Cl)C(C(=O)c2cccs2)C(O)(C(F)(F)F)N1 (stereo unspecified),8.73,"0.146 µM [rising, full curve]",–
Cc1ccc(-n2cnnn2)c2cccnc12,16,"2.31 µM [rising, single point]",–
CCOc1ccc(CCNC(=O)C2CC(=O)N(Cc3ccc(OC)cc3)C2)cc1OCC (stereo unspecified),9.23,–,"0.291 µM [rising, partial curve]"
CC1(C)CC(=O)C(C(=O)c2ccccc2)C(=O)C1,-28.7,"29.1 µM [falling, single point]",–
O=C(NC1CCN(Cc2ccccc2)CC1)c1cccc(S(=O)(=O)Nc2ccc(F)cc2)c1,-21.6,"16.4 µM [falling, partial curve]",–
O=C(Nc1cccc(Cl)c1)Nc1ccc(Br)cc1F,-66.3,"9.2 µM [falling, partial curve]","16.4 µM [falling, partial curve]"
CCc1cccc(Oc2nn[nH]n2)c1,-6.32,–,–
Cc1nc(C)c(C(=O)N2CCCC(CCC(=O)NCc3ccc(F)c(F)c3)C2)s1 (stereo unspecified),-26.6,"20.6 µM [falling, partial curve, poor fit]",–
O=C(Nc1cccc2ccccc12)c1nn(C23CC4CC(CC(C4)C2)C3)cc1[N+](=O)[O-],-19.3,"29.1 µM [rising, single point]",–
CCn1c(SCC(=O)Nc2ccc(N(C)C)cc2)nnc1-c1ccco1,25.4,"25.9 µM [rising, single point]",–
O=S(=O)(C/C(=C/CO)S(=O)(=O)c1ccccc1)c1ccccc1,-71.1,"5.17 µM [falling, full curve]","5.8 µM [falling, full curve]"
O=C(Nc1cccc(Cl)c1Cl)C1CCN(C(=O)c2cccs2)CC1,3.36,–,–
CC(=O)Nc1ccc(NC(=O)C(C)OC(=O)CCc2c[nH]c3ccccc23)cc1 (stereo unspecified),34.7,"6.51 µM [rising, single point]","7.31 µM [rising, partial curve, poor fit]"
COC(=O)C1CCN(C(=O)COC(=O)CC(NC(C)=O)c2ccccc2)CC1 (stereo unspecified),-18.4,"25.9 µM [falling, partial curve]","0.00184 µM [falling, full curve, poor fit]"
Cc1ccccc1Nc1nc(N)nc(COc2ccc(C#N)cc2)n1,51.7,–,"18.4 µM [rising, single point]"
COc1cc2c(cc1OC)C(c1ccccc1)=NCC2,71.7,–,"4.11 µM [rising, partial curve, poor fit]"
Cc1ccc(SCC(=O)OCC(=O)N(C)CC(=O)Nc2ccc(F)cc2)cc1,-12,"0.00461 µM [falling, full curve, poor fit]",–

# Two successive compounds out of the list so far:
SMILES,cell number change [%],AC50 [1],AC50 [2]
O=C1NC(=S)CN1c1ccccc1,-59.2,"3.66 µM [falling, full curve]","7.31 µM [falling, partial curve]"
O=C(NC1CCNCC1)C1CCCCC1,31.4,–,–
